Measured values taken from PubChem BioAssay AID2685 (National Center for Advancing Translational Sciences (NCATS), 2010).
Screen size: about 320,000 compounds; about 2,100 (0.66%) were called active. The shares of active, inactive and inconclusive entries below differ from those in the screen. The call rests on the fitted dose curve; in most records, active means well fitted inhibition curve with a large enough effect in the signal ratio, with a control signal flat (not every such curve was filed as active); inconclusive means small, poorly fitted or top-dose-only effect, or effect the other way, or a change in a side signal; inactive means flat fitted curve, though single readings scatter; the % refers to the signal ratio. A potency beside an inconclusive call is a rough fit, not a confirmed value.

Assay: qHTS Assay for Lipid Storage Modulators in Drosophila S3 Cells
Settings: BODIPY lipid droplet fluorescence, 18-24 h, cells fed with added oleic acid; lipid storage change, negative = inhibition: at 46.1 µM (top of the series) unless noted
In short: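 Laser-scanning cytometry quantifies lipid droplet accumulation (500–530 nm total intensity; droplet/cell object ratio) in oleic acid-fed (400 uM added) Drosophila S3 cells treated with a concentration series. 20 uM Triacsin C defined 100% inhibition.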
On the % scale 0 is the no-effect control and ±100 the full control effect; potency means the concentration at half of the fitted maximal effect.

Compound	Potency	lipid storage change, negative = inhibition	outcome
CCC(NS(=O)(=O)c1ccc(C)cc1)C(=O)N1CCC2(O)CCCCC2C1 (centres undefined)	inconclusive: 2.91 µM [falling, partial curve, poor fit]		
Cc1cccc(C)c1NC(=O)c1c[nH]c2ccccc12		inconclusive: 19.2%	
CC(=O)Nc1ccc(NS(=O)(=O)c2ccc(Cl)s2)cc1	inconclusive: 18.4 µM [activator, single point]		
CC(=O)c1cccc(NC(=O)CCS(=O)(=O)c2cccc3nsnc23)c1		inconclusive: -2.42%	
O=C(NCCOc1ccccc1)C1CCC(=O)N(CCCN2CCCC2=O)C1 (centres undefined)		inconclusive: -9.89%	
CC(C)CCNC(=O)COC(=O)/C=C/c1ccc2ccccc2n1		inconclusive: -14.4%	
CCn1cc(SCC(N)=O)c2ccccc21	inconclusive: 29.1 µM [cytotoxic, single point]		
N#Cc1ccccc1CSc1ncccc1C(=O)O		inconclusive: 56.9%	
C=C(C)c1cccc(C(C)(C)NC(=O)Nc2ccc(OC)cc2)c1		inconclusive: 0.0489%	
CC(=O)c1cccc(NC(=O)c2ccoc2C)c1		inconclusive: 8.73%	
COc1ccccc1OCC(=O)Nc1ccc(S(=O)(=O)Nc2onc(C)c2C)cc1	inconclusive: 0.58 µM [activator, single point]		
O=C(NCc1ccco1)C(Cc1ccccc1)NS(=O)(=O)c1cccc2nsnc12 (centres undefined)		inconclusive: -3.85%	
CC1CCCCC1NC(=O)CSc1nc2ccccc2[nH]1 (centres undefined)		inactive: 5.65%	
CCOC(=O)Cc1sc(N)nc1C		inconclusive: -7.94%	
S=C(NCCCN1CCOCC1)N1CCN(c2cccc(Cl)c2)CC1		inconclusive: 6.22%	
CCOC(=O)c1c(C)n(C)c2ccc(OCC(O)CN3CCN(C)CC3)cc12 (centres undefined)	inconclusive: 3.26 µM [activator, single point]		
Cc1ccc(C2CC(C(F)(F)F)n3nc(C(=O)NCc4c(C)nn(C)c4C)c(Cl)c3N2)cc1 (centres undefined)		inconclusive: -36%	
O=c1ccc(S(=O)(=O)N2CCCC2)cn1Cc1ccc(Cl)cc1Cl		inconclusive: 42.6%	
COc1cc(OC)c(NC(=O)CCNS(=O)(=O)c2cc(Br)cnc2N)cc1Cl			inactive [at 46.1 µM]
CCn1c(=O)c(C(=O)CN2CCOCC2)c(N)n(Cc2ccccc2)c1=O		inconclusive: 22.8%	
O=C(CC(Nc1ccccc1Cl)C(=O)O)c1ccccc1 (centres undefined)		inconclusive: -46.1%	
CC(=O)Nc1nonc1NC(=O)CSC1=NCCS1		inconclusive: 17.1%	
Cc1cccc(C)c1NC(=O)CSCc1cccc(CSCC(=O)Nc2c(C)cccc2C)n1		inconclusive: 18.5%	
CCN1CCN(c2ccc(NC(=O)c3ccc4c(c3)OCCO4)cc2C)CC1		inconclusive	
CC1=CC(C)(C)N(S(=O)(=O)c2ccc(C)cc2)c2ccccc21	inconclusive: 0.231 µM [activator, full curve]		
Cn1c(=O)c2ccccc2n2c(CCl)nnc12		inconclusive: -42.2%	
Cc1cccn2c(=O)nc(SCC(=O)c3ccc(Cl)cc3)nc12		inconclusive: 26.4%	

Compound	Potency	lipid storage change, negative = inhibition	outcome
Cn1c(SCC(=O)Nc2nccs2)nnc1-c1ccc(S(=O)(=O)N2CCCC2)cc1	inconclusive: 6.51 µM [rising, single point]		
CCOC(=O)CC1(c2ccccc2)CCOC(C)(C)C1 (centres undefined)		inactive: -20%	
Fc1ccc(SCCc2ccccn2)cc1		inconclusive: 9.92%	
C=CCOC(=O)Cn1cnc2c(sc3nc(C)cc(C)c32)c1=O		inconclusive: 24.8%	
O=C(CN1C(=O)NC2(CCCCCCC2)C1=O)Nc1ccc(Cl)cc1		inactive: 26.3%	
O=C(Nc1cc(Cl)ccc1-n1cncn1)c1ccc([N+](=O)[O-])o1		inactive: 13%	
CCN(C1CCCCC1)S(=O)(=O)c1ccc(C(=O)O)cc1		inconclusive: 2.22%	
COc1ccc(C2c3c4c(n(C)c3CCN2C)CCN(C)C4c2ccc(OC)cc2)cc1 (centres undefined)	inconclusive: 4.11 µM [falling, single point]		
COc1cc(C(=O)OCC(=O)NCCN2C(=O)CSC2=O)ccc1OCc1c(C)noc1C		inconclusive: -6.66%	
COCCN(C(=O)CSc1nc2ccccc2c(=O)n1CC(C)C)c1c(N)n(Cc2ccccc2)c(=O)[nH]c1=O	inconclusive: 25.9 µM [falling, single point]		
CN(Cc1ccco1)C(=O)C1CCN(c2nnc(-n3cccc3)s2)CC1		inconclusive: -39.9%	
CC(C)CNS(=O)(=O)c1ccc(CCC(=O)NC2CCCC2)cc1		inconclusive: 49.9%	
O=C(O)c1ccc(OC2CSC2)cc1		inconclusive: 10.4%	
CCOC(=O)c1[nH]c(C)c(C(=O)OCc2ccc(C)cc2)c1C	inconclusive: 0.206 µM [activator, full curve, poor fit]		
O=C(CSc1ccccc1)Nc1ccccc1C(=O)N1CCCC1		inconclusive: -30.8% [at 0.369 µM]	
COc1ccc(CCNC(=O)c2ccco2)cc1OC		inactive: 5.81%	
O=C(c1ccc2c(c1)N(Cc1ccc(F)cc1)C(=O)c1ccccc1S2(=O)=O)N1CCN(c2ccccn2)CC1		inconclusive: 16%	
CCCC1=C(C(=O)OCC)C(c2cccs2)C(C#N)=C(N)O1 (centres undefined)		inconclusive: -6.65%	
Cc1cccc(C)c1N(C(=O)c1ccco1)C(C(=O)NC1CCCC1)c1ccncc1 (centres undefined)	inconclusive: 29.1 µM [activator, single point]		
COc1ccc(N(CC(=O)N2CCc3ccccc3C2)S(C)(=O)=O)cc1Cl	inconclusive: 0.206 µM [activator, full curve, poor fit]		
O=C(Nc1ccccc1C(=O)NCCCN1CCOCC1)c1ccccc1		inactive: 12.1%	
Cc1ccc(N2CC(=O)N(NC(=O)c3sc4nc(C)cc(C)c4c3N)CC2=O)cc1		inconclusive: 14%	
O=C(NNc1cc(N2CCOCC2)nc(N2CCOCC2)n1)c1ccc(Cl)c(Cl)c1	inconclusive: 0.291 µM [rising, full curve, poor fit]		
O=C1c2cccnc2C(=O)N1Cc1ccc(S(=O)(=O)N2CCOc3ccc(Cl)cc32)cc1	inconclusive: 29.1 µM [activator, partial curve]		
CCCCC(=O)N1CCCC(C(=O)OCC)C1 (centres undefined)			inactive [at 46.1 µM]
O=C(CSc1n[nH]c(-c2ccc(S(=O)(=O)N3CCCCC3)cc2)n1)Nc1nccs1	inconclusive: 23.1 µM [falling, single point]		
COc1ccc(-c2nc(N)ncc2-c2ccc(Cl)cc2)c(O)c1	inconclusive: 23.1 µM [activator, single point]		

In another format: results already given.
Compound,Potency,"lipid storage change, negative = inhibition",outcome
C=CCOC(=O)Cn1cnc2c(sc3nc(C)cc(C)c32)c1=O,,inconclusive: 24.8%,
O=C(CSc1ccccc1)Nc1ccccc1C(=O)N1CCCC1,,inconclusive: -30.8% [at 0.369 µM],
CCCC1=C(C(=O)OCC)C(c2cccs2)C(C#N)=C(N)O1 (centres undefined),,inconclusive: -6.65%,
O=C(NNc1cc(N2CCOCC2)nc(N2CCOCC2)n1)c1ccc(Cl)c(Cl)c1,"inconclusive: 0.291 µM [rising, full curve, poor fit]",,
COc1ccc(-c2nc(N)ncc2-c2ccc(Cl)cc2)c(O)c1,"inconclusive: 23.1 µM [activator, single point]",,

Following part

Compound	Potency	lipid storage change, negative = inhibition	outcome
CC1CCN(C(=O)c2cc(Cl)nc3ccccc23)CC1		inactive: 13.5%	
Cc1ccsc1-c1cc(C(=O)O)c2c(ccc3ccccc32)n1		inconclusive: 88.1%	
CC1CCCCN1C(=O)c1ccc(CS(=O)(=O)Cc2ccccc2)cc1 (centres undefined)		inconclusive: 0.808%	
c1ccc(-c2nc(Sc3ncnc4c3cnn4-c3ccccc3)n[nH]2)cc1		inconclusive: -2.43%	
CCCn1c(C(C)Nc2nc(-c3ccc(C)cc3)cs2)nc2ccccc21 (centres undefined)		inconclusive: 34.2%	
CC(C)(C)c1ccc(C(=O)N2CCC(NC(=O)c3ccccc3)CC2)cc1	inconclusive: 10.3 µM [falling, partial curve]		
N#Cc1ccc(C(=O)Nc2ccc3ccccc3c2)cc1		inconclusive: 103%	
O=C(OCCCN=C1NS(=O)(=O)c2ccccc21)C1CC(=O)N(c2ccc(Cl)cc2)C1 (centres undefined)		inactive: -7.49%	
CCc1ccc(N2CC(C)Cn3c2nc2c3c(=O)n(CCN3CCOCC3)c(=O)n2C)cc1 (centres undefined)	inconclusive: 7.31 µM [activator, partial curve, poor fit]		
COc1ccc(CNC(=S)N/N=C/c2ccncc2)cc1	inconclusive: 29.1 µM [activator, partial curve]		
CCCCNS(=O)(=O)c1ccc2nc(-c3cccnc3)cc(C(=O)NCCCN(CC)CC)c2c1	inconclusive: 6.51 µM [falling, single point]		
COc1ccc(Oc2nccc(-c3ccccc3)c2C#N)cc1		inconclusive: -0.77%	
COc1ccc(CNC(=O)C2CCN(S(C)(=O)=O)CC2)c(OC)c1		inconclusive: -5.09%	
O=C(NC1CC2CCC(C1)N2C(=O)NCc1ccccc1)NC12CC3CC(CC(C3)C1)C2 (centres undefined)		inconclusive: 8.55%	
CC(Oc1ccc([N+](=O)[O-])cc1)C(=O)NCC1CCCO1 (centres undefined)		inconclusive: 35.3%	
COC(=O)c1ccc2c(=O)n(CCCCCC(=O)O)c(=S)[nH]c2c1		inactive: 5.22%	
CSCCC(NC(=O)c1ccccc1Cl)C(=O)NCc1ccncc1 (centres undefined)		inconclusive: 33.4%	
Cc1ccc(-n2nc3c(c2NC(=O)c2ccco2)CS(=O)(=O)C3)c(C)c1		inconclusive: -12%	
CC(=O)Nc1ccc(OC(=O)Cc2ccc(Cl)cc2)cc1	inconclusive: 10.3 µM [activator, partial curve]		
Cc1cc2nnc(SCC(=O)N3CCN(c4ccccc4)CC3)n2c(N)n1		inconclusive: 0.772%	
Cc1cc2ncn(S(=O)(=O)c3ccc(S(=O)(=O)N4CCOCC4)cc3)c2cc1C	inconclusive: 10.3 µM [rising, partial curve]		
Cn1nc(-c2ccc(Cl)cc2)c2cc(C(=O)N3CCN(c4ccccn4)CC3)sc21	inconclusive: 0.231 µM [rising, full curve, poor fit]		
Cc1onc(-c2ccccc2)c1-c1nnc(CN2CCN(S(=O)(=O)c3ccccc3)CC2)o1		inconclusive: 23.3%	
Cc1c(Cl)cccc1NC(=O)CS(=O)(=O)c1ccccc1	inconclusive: 0.58 µM [activator, single point]		
Cc1cc(C)c(C)c(S(=O)(=O)N2CCC(C(=O)NC3=NCCS3)CC2)c1C		inconclusive: 14.9%	
